Laboratory results: PubChem BioAssay AID1259308 (NCATS, 2017)

Test: 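Candidate targets for better recombinant protein yield in mammalian cells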 (primary screen)
Cell system: human HEK293 embryonic kidney cells stably expressing firefly luciferase (HEK-CMV-Luc2-Hygro)
Knock-down reagent: single siRNA against human genes, 0.8 pmol siRNA per well
Time to read-out: 72 h
Read-out: 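Luciferase light (ONE-Glo) measured on one replicate plate set and viability (CellTiter-Glo) on the other, scaled to a negative control siRNA, with robust z-scores and luciferase per cell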
Direction: total luciferase, z-score and total luciferase, % of control: higher = more reporter protein produced; luciferase per cell, z-score: higher = more reporter output per viable cell; viable cells, % of control: higher = more viable cells
Call rule: 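Active when the median/MAD z-score for overall luciferase is greater than 3; a gene was taken forward for validation with new siRNAs if at least two of its three siRNAs passed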
Meaning of the calls: active = raised luciferase; inactive = no rise
Here is one part, drawn at random, of about 59,000 deposited reagents. About 1,510 of them (2.6%) count as active. 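Calls use total luciferase alone and ignore viability, so some active siRNAs may act by altering cell number.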 Unmarked entries are inactive. Reagents against one gene are numbered here.

Target gene	siRNA no.	total luciferase, z-score	total luciferase, % of control	luciferase per cell, z-score	viable cells, % of control
HOXA7 (homeobox A7)	1	0.292	87.7	-0.225	104
HOXA7 (homeobox A7)	2	-1.65	49.1	-1.66	85
HOXA7 (homeobox A7)	3	0.29	87.6	1.14	72.6
FRRS1 (ferric chelate reductase 1)	1	0.414	90.1	-0.311	109
FRRS1 (ferric chelate reductase 1)	2	-0.283	76.3	-0.693	102
FRRS1 (ferric chelate reductase 1)	3	3.42 (active)	150	2.33	90.7
BHMT (betaine--homocysteine S-methyltransferase)	1	-0.289	76.1	-0.515	97.4
BHMT (betaine--homocysteine S-methyltransferase)	2	0.148	84.8	-0.467	107
BHMT (betaine--homocysteine S-methyltransferase)	3	-1.13	59.3	-1.53	99.2
LOC645100 (retired record)	1	0.209	86	0.584	82.4
LOC645100 (retired record)	2	-0.0479	80.9	0.0939	88.2
LOC645100 (retired record)	3	-0.429	73.4	0.936	64.1
COX18 (cytochrome c oxidase assembly factor COX18)	1	-1.18	58.4	0.615	55.5
COX18 (cytochrome c oxidase assembly factor COX18)	2	-0.327	75.4	-0.67	100
COX18 (cytochrome c oxidase assembly factor COX18)	3	-0.678	68.4	-0.301	82.7
PAPPA2 (pappalysin 2)	1	-0.66	68.8	-0.862	96.4
PAPPA2 (pappalysin 2)	2	0.931	100	0.626	95.1
PAPPA2 (pappalysin 2)	3	2.53	132	2	87.1
EEFSEC (eukaryotic elongation factor, selenocysteine-tRNA specific)	1	4.22 (active)	166	2.27	102
EEFSEC (eukaryotic elongation factor, selenocysteine-tRNA specific)	2	2.35	129	1.15	106
EEFSEC (eukaryotic elongation factor, selenocysteine-tRNA specific)	3	3.21 (active)	146	2.03	95.4
FZD2 (frizzled class receptor 2)	1	0.237	86.6	0.444	86.1
FZD2 (frizzled class receptor 2)	2	0.794	97.7	0.783	88.8
FZD2 (frizzled class receptor 2)	3	-2.04	41.4	-2.34	85.7
SOCS2-AS1 (SOCS2 antisense RNA 1)	1	-1.58	50.5	-0.237	60
SOCS2-AS1 (SOCS2 antisense RNA 1)	2	0.0739	83.4	1.55	62
SOCS2-AS1 (SOCS2 antisense RNA 1)	3	0.471	91.3	0.541	88.4
MAFA (MAF bZIP transcription factor A)	1	-0.248	77	-0.457	97
MAFA (MAF bZIP transcription factor A)	2	0.15	84.9	0.159	91
MAFA (MAF bZIP transcription factor A)	3	1.81	118	4.43	41
MCFD2	1	-0.486	72.2	-1.04	106
MCFD2	2	-0.00748	81.7	-0.732	111
MCFD2	3	-0.659	68.8	-0.36	84.5
TMEM184B (transmembrane protein 184B)	1	-1.1	60.1	1.57	44.4
TMEM184B (transmembrane protein 184B)	2	-0.812	65.7	-0.795	90.6
TMEM184B (transmembrane protein 184B)	3	0.528	92.4	0.376	93.5
PRAMEF5 (PRAME family member 5)	1	0.612	94.1	2.82	50.1
PRAMEF5 (PRAME family member 5)	2	-0.289	76.1	0.0624	83.7
PRAMEF5 (PRAME family member 5)	3	-1.01	61.7	-0.732	83.6
